Laboratory results published in patent publication US20160176956A1 (Novartis, published 2016).
Results are given in words; binding and its absence hold for the method and conditions named.

Target: hBaffR (human)
Test: ELISA on coated antigen, detection with anti-Fab-AP, fluorescence signal intensity

B1: Antibody 7 (antibody, human IgG1, lambda, V domains shown)
VH: QVQLVESGGGLVKPGGSLRLSCAASGFTFSSYVVHWVRQAPGKGLEWVGRIRLETHGYAAEYAASVKGRFTISRDDSKNTLYLQMNSLKTEDTAVYYCARVERSKSGFDNWGQGTLVTVSS
VL: QSVLTQPPSVSGAPGQRVTISCTGSSSNIGAGYSVHWYQQLPGTAPKLLIYGQSERPSGVPDRFSGSKSGTSASLAITGLQAEDEADYYCQSWDSSQTLVVFGGGTKLTVLG
notes: germlined clone of NOV0806 (HCDR2-matured NOV0442_VL[Y49,G50,N51Q]); human IgG1; final lead; also called NOV0958; NOV958
With B1 the binding was “no binding (tested: not given on the sheet)”.
